# Results reported in PubChem BioAssay AID1345085 (National Center for Advancing Translational Sciences (NCATS), 2018).
# Inconclusive means that the source gave no clear call. Such entries were picked first, then a sample of the others. Entries that show only a call come without a potency. Where the call is inconclusive, the potency comes from a doubtful curve fit. Activity calls are given as the source filed them. Calls come from the whole dose curve; as a rule, active = well fitted cell-killing curve with a large enough effect; inconclusive = small, poorly fitted or top-dose-only effect, or effect the other way; inactive = no such curve, though single readings can be large or run the other way.
# Tested on: CAOV3
# Experiment: Confirmatory qHTS for gynecologic anti-cancer compounds from libraries of approved drugs and bioactive compounds; note: nearly all actives have a fitted effect of over 55% in size
# Details: gynecologic cancer cell panel viability, ATPlite luminescence, 48 h; series mostly up to 57.6 µM
# Outline: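 Seeding 1,000 cells per well preceded overnight (16 h) attachment, after which 48 h drug treatment across 57.5 uM–0.977 nM (11 points) was applied. Remaining cellular ATP, detected by ATPlite luminescence, defined IC50.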
# Potency is the fitted concentration of half-maximal effect.
row,Structure (SMILES),Potency
1,CCN1CCN(C(=O)Cc2ccc(Nc3ncc(F)c(Nc4ccc(C(=O)Nc5ccccc5Cl)cc4)n3)cc2)CC1,inactive
2,Cc1sc2c(c1C)C(c1ccc(Cl)cc1)=NC(CC(=O)OC(C)(C)C)c1nnc(C)n1-2 (stereo not given),"inconclusive: 273 nM [cytotoxic, full curve]"
3,C=C(C)[C@H]1Cc2c(ccc3c2O[C@@H]2COc4cc(OC)c(OC)cc4[C@@H]2C3=O)O1,inactive
4,CCC(=O)O[C@H]1CC[C@H]2[C@@H]3CCC4=CC(=O)CC[C@]4(C)[C@H]3CC[C@]12C,inactive
5,C[C@]12CC[C@H]3[C@@H](CCC4=CC(=O)CC[C@@H]43)[C@@H]1CC[C@@H]2OC(=O)CCc1ccccc1,inactive
